Measured values from patent US20260167712A1, “INHIBITORY ANTIBODIES AGAINST GLUT1” (ICOSAGEN CELL FACTORY OÜ, priority 2022, published 2026).
At least one read-out could not be matched to a standard name with certainty.

B1: 6F12 #33 (antibody, V domains shown)
VH: AVTLDESGGGLQTPGGALSLVCKASGFTFSDHAIFWVRQAPDKGLEFVAAISSGTGSWTAYATVVKGRATISRDNGQSTVRLQLNNLRAADTATYYCAKGAGSACCYAGSIDAWGHGTEVIVSS
VL: ALTQPSSVSANPGETVKITCSGGSSSSYYGWYQQKSPGSAPVTLIYYNDKRPSDIPSRFSGSKSGSTATLTITGVQVEDEAVYYCGTGDGSFAIFGAGTTLTVL
B2: R14 #54: anti-SLC2A1 monoclonal antibody, VH SEQ ID NO 337, VL SEQ ID NO:341 (antibody, V domains shown)
VH: AVTLDESGGGLQTPGGALSLVCKASGFKFSDHAIFWVRQAPDKGLEFVAAISQGSGSWTAYATVVKGRATISRDNGQSTVRLQLNNLRAADTATYYCAKGAGRACCYAGSIDAWGHGTEVIVSS
VL: ALTQPSSVSANPGETVKITCSGGSSSSYYGWYQQKSPGSAPVTLIYYNDKRPSDIPSRFSGSKSGSTATLTITGVQVEDEAVYYCGTGDGSFAIFGAGTTLTVL

Tested on: MCF7 breast cancer cells
Experiment: Cell proliferation inhibition assay (Incucyte), MCF7
Type: cell-based
Conditions: co-treatment with 130 μM phenformin, FIG. 10
Description: Incucyte S3 Live cell analysis instrument and Cell-by-Cell analysis software module (Sartorius) were used to evaluate the effect of anti-SLC2A1 antibodies on cancer cell proliferation label-free (FIGS. 5-11). MCF7, PC3 or PANC1 or MIAPACA2 cells were plated on flat bottom tissue culture 96-well plate in […] medium (Ximbio) supplemented with 2.5% FBS. Cells were incubated overnight and 0.02 nM to 13 μM anti-SLC2A1 antibodies, anti-HEL isotype control, PBS or BAY-876 were added to the cells alone or in combination with metformin (CaymanChem), phenformin (Sigma Aldrich) or IACS-010759 (CaymanChem). Cell confluence or object count was measured for 24 to 96 hours with Incucyte S3 and normalized to timepoint 0 h or 4h. anti-SLC2A1 antibodies inhibit cancer cell proliferation alone and especially in combination with complex-I inhibitors metformin, phenformin and IACS-010759. Exemplary antibodies 1G2 #9, 2A2 #12, 2E5 #22, 5G5 #30, 6F12 #33, 7C3 #39 and R14 #54 were used in proliferation assays.

Molecule	MCF7 cell growth in the presence of 130 μM phenformin (IC50 experiment)
B1	concentration dependent growth inhibition
B2	concentration dependent growth inhibition
